Measured values from US5599974A, “Aldehydic agents for allosteric modification of hemoglobin” (Center for Innovative Technology, priority 1994, dated 1997).
At least one compound was matched to its structure with a doubt left.

The chains behind the UniProt entries cited, without tags or fusion partners.
UniProt P69905, whole entry: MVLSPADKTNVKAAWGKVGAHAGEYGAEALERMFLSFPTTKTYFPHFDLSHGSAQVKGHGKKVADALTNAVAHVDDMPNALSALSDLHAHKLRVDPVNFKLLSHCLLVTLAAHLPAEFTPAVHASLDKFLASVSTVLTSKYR

Target: T1, human hemoglobin (HbA) (Homo sapiens, UniProt P69905)
T1 construct: hemoglobin solution
Test: Oxygen equilibrium studies of hemoglobin solutions (Hem-O-Scan oxygen dissociation curves)
Type: biochemical
Conditions: hemoglobin solution, Hb 2.7 mM
Text: In blood, hemoglobin is in equilibrium between two allosteric structures. In the "T" (for tense) state, hemoglobin is de-oxygenated. In the "R" (for relaxed) state, hemoglobin is oxygenated. An oxygen equilibrium curve can be scanned using well known equipment such as the Aminco™ Hem-o-scan to evaluate the affinity and degree of cooperativity (allosteric action) of hemoglobin. In the scan, the Y-axis plots the percent of hemoglobin oxygenation and the X-axis plots the partial pressure of oxygen in millimeters of mercury (mm Hg). If a horizontal line is drawn from the 50% oxygen saturation point to the scanned curve and a vertical line is drawn from the intersection point of the horizontal line with the curve to the partial pressure X-axis, a value commonly known as the P50 is determined. […] By comparing the P50 value for treated hemoglobin to the P50 value for untreated normal adult human hemoglobin (HbA) under physiological conditions (i.e., 37° C., pH=7.4, and partial carbon dioxide pressure of 40 mm Hg), the degree of allosteric modification can be determined. […]
In the oxygen equilibrium studies, the HbA was further purified by dialysis against pH 8.6. […] The Hb concentration was determined by using the cyanmet method. […] Oxygen dissociation curves were recorded on an AMINCO Hem-0-Scan oxygen dissociation analyzer available from Travenol Laboratories. […]

O=Cc1ccc(OC(=O)CC(=O)Oc2ccc(C=O)cc2C(=O)O)c(C(=O)O)c1 [TB79, bis(2-carboxy-4-formylphenyl)-malonate]
P50 D (aver.) (compound 10 mM (approx. 4:1), 50 mM HEPES pH 7.4, incubated at 4° C. for two hours): 19.0 mm Hg
ΔP50 (P50 D - P50 C) (compound 10 mM, 50 mM HEPES pH 7.4, positive = right shift): -2.0 mm Hg
